Experimental data reported in paper PMC11618363.
No constants are given. Whether binding was seen depends on the method and setting. In cells and extracts the contact can be indirect. Where a sequence is shown, tags or fusion partners need not be part of it.

Target: T1, Pro-casp1-His (murine) (UniProt P29452)
T1 sequence: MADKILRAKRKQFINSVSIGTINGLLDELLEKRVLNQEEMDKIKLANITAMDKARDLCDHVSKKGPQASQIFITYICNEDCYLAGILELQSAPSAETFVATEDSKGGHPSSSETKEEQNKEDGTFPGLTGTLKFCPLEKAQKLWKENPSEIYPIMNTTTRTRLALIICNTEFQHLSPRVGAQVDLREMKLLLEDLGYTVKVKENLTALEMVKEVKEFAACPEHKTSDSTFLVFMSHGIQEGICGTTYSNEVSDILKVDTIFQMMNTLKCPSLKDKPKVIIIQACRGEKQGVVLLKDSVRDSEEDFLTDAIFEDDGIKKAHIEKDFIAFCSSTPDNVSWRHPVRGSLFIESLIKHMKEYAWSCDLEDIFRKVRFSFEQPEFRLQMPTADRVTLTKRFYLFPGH
Assay: co-IP; HEK293T transiently transfected for 48 h; lysate in 50 mM HEPES pH 7.0, 250 mM NaCl, 1 mM EDTA, 0.2% Nonidet P-40; overnight at 4 °C with anti-Flag M2 affinity gel or anti-c-Myc agarose; immunoblot; in some experiments varying amounts of cGSN or MAVS plasmid, or BAPTA-AM (5, 20, 40 μM) during transfection

- binding: no binding
Substance: Myc-GSN (murine)
